These results are taken from the supplement of paper PMC4604168 (melanoma cell lines).

Each structure is given as a SMILES string. This is one part of the list. Repeats are few or missing, and single values can be far off.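 Imaging used 1,536-well plates; nuclei positive for cleaved PARP by antibody were divided by total DNA-stained nuclei to yield the apoptosis fraction. Doses for screening kept most cells viable, and cell lines differ markedly in resting and induced cleaved-PARP levels.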

What all share (test): cleaved PARP positive nuclei fraction relative to DMSO control; melanoma cells; higher = more apoptosis
Holding throughout (details): library dose: low library concentration; 72 h

For test [1], the system named is MZ2-MEL.
In test [2] the test system is MeWo.
The subject of test [3] is RPMI7951.
Test [4] has as its system RVH-421.
The test system of test [5] is SkMel28.
Test [6] has as its system SkMel30.
The test system of test [7] is SkMel5.
Test [8] deals with UACC257.
For test [9], the system named is UACC62.

`OCCn1cc(-c2cnc3nnn(Cc4ccc5ncccc5c4)c3n2)cn1` + CCc1ccc(CCOc2ccc(CC3SC(=O)NC3=O)cc2)nc1 [pioglitazone] (first compound 1 µM, partner dose 2 µM): the “cleaved PARP positive nuclei fraction” value in test [1] was 128%; in test [2], 51%; in test [3] it was 47.1%; in test [4], 153%; in test [5] it was 113%; in [6], 313%. For the same compound, the results for the “cleaved PARP positive nuclei fraction” value in test [7], in [8] and in test [9] were 56.6%, 51.2% and 159%, respectively.

Regarding `CC1(C)NC(=O)N(c2ccc([N+](=O)[O-])c(C(F)(F)F)c2)C1=O` [nilutamide] + c1cc(-c2cnn3cc(-c4ccc(OCCN5CCCCC5)cc4)cnc23)ccn1 [Dorsomorphin] (first compound 1 µM, partner dose 0.4 µM), the “cleaved PARP positive nuclei fraction” value in test [1] was 89%; in test [2], 143%; in test [3], 42.1%; in [4], 56.5%; in test [5] it was 88.8%; in [6] it was 53.2%. Moreover, the “cleaved PARP positive nuclei fraction” value was found to be 132% in [7], 77.2% in [8] and 73.9% in test [9].

`CC(C)(C)c1cnc(CSc2cnc(NC(=O)C3CCNCC3)s2)o1` + COc1ccc2c(c1)CCC1C2CCC2(C)C(NCCCCCCN3C(=O)C=CC3=O)CCC12 [U73122] (first compound 0.01 µM, partner dose 0.4 µM): the “cleaved PARP positive nuclei fraction” value stood at 88.4% in [1]; 49.5% in test [2]; 95.4% in test [3]; 48.7% in test [4]; 110% in test [5]; 24.9% in [6]. Further, the “cleaved PARP positive nuclei fraction” value in test [7] came out at 74.1%; in [8], 57.2%; in [9] it was 66.8%.

For `COc1cc(Nc2ncc(F)c(Nc3ccc4c(n3)NC(=O)C(C)(C)O4)n2)cc(OC)c1OC` [Tamatinib] + COC(=O)c1sccc1S(=O)(=O)Nc1ccc(Nc2ccccc2)cc1OC [GSK0660] (first compound 0.4 µM, partner dose 1 µM), the “cleaved PARP positive nuclei fraction” value was found to be 171% in test [1]; 38.9% in [2]; 109% in test [3]; 64.7% in [4]; 153% in test [5]; 60.8% in test [6]. In addition, the “cleaved PARP positive nuclei fraction” value was determined as 43.6% in [7], 318% in test [8] and 101% in [9].

Consider `NC(=O)Nc1cc(-c2cccc(F)c2)sc1C(=O)N[C@H]1CCCNC1` + CCc1ccc(CCOc2ccc(CC3SC(=O)NC3=O)cc2)nc1 [pioglitazone] (first compound 0.02 µM, partner dose 2 µM), for which the “cleaved PARP positive nuclei fraction” value in test [1] worked out at 66.8%; in [2], 111%; in test [3] it was 81.8%; in test [4] it was 44.4%; in test [5], 119%; in test [6], 51.6%. The “cleaved PARP positive nuclei fraction” value in test [7] stood at 60%; in [8] it was 49.7%; in [9], 111%.
